PubChem BioAssay AID743454 – Peter MacCallum Cancer Centre – 2014
Aim: 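Search for knock-downs that restore vorinostat killing in resistant colon cancer cells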 (primary screen). System: human HCT116-VR colon cancer cells, selected for vorinostat resistance. Reagents: siRNA pool against human genes, 40 nM siRNA pool. Timing: vorinostat for 24 h, read-out about 72 h after transfection. Conditions: vorinostat at 2.5 µM final. Detection: 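Cell viability by CellTiter-Fluor and caspase 3/7 activity by luminescence, each scaled to mock wells per plate, duplicates averaged, then robust z-scored over all plates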. Scale: viability robust z-score: higher = more viable cells than screen typical; caspase robust z-score: higher = more caspase 3/7 activity than screen typical. Call rule: 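a knock-down is a hit when classed RV1 or RV2 for lowered viability, or CA1 or CA2 for caspase activation; those lethal without drug were dropped; hits were retested singly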.
This is a random part of about 18,000 reagents tested. In the full data, 450 (2.5%) are marked active. 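Single biological run; no consistent viability z cut-off exists, so the class columns, not z-scores, define the calls.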 Entries without a mark were called inactive.

{"target": "C4BPB (complement component 4 binding protein beta)", "PubChem SID": "SID152154927", "viability hit class": "no change", "caspase hit class": "no change", "viability robust z-score": 1.16, "caspase robust z-score": -0.69}
{"target": "MTPAP (mitochondrial poly(A) polymerase)", "PubChem SID": "SID134320476", "viability hit class": "no change", "caspase hit class": "no change", "viability robust z-score": 1.36, "caspase robust z-score": -0.05}
{"target": "USP27X (ubiquitin specific peptidase 27 X-linked)", "PubChem SID": "SID152154029", "viability hit class": "no change", "caspase hit class": "no change", "viability robust z-score": 1.52, "caspase robust z-score": -0.76}
{"target": "GPR161 (G protein-coupled receptor 161)", "PubChem SID": "SID135621059", "viability hit class": "no change", "caspase hit class": "no change", "viability robust z-score": -1.2, "caspase robust z-score": 0.07}
{"target": "CCDC85A (coiled-coil domain containing 85A)", "PubChem SID": "SID152147970", "viability hit class": "no change", "caspase hit class": "no change", "viability robust z-score": 2.06, "caspase robust z-score": 0.76}
{"target": "HS3ST3B1 (heparan sulfate-glucosamine 3-sulfotransferase 3B1)", "PubChem SID": "SID152152345", "viability hit class": "no change", "caspase hit class": "no change", "viability robust z-score": -2.48, "caspase robust z-score": 4.13}
{"target": "EVX2 (even-skipped homeobox 2)", "PubChem SID": "SID135624354", "viability hit class": "no change", "caspase hit class": "no change", "viability robust z-score": 1.01, "caspase robust z-score": 0.8}
{"target": "SRA1 (steroid receptor RNA activator 1)", "PubChem SID": "SID152151236", "viability hit class": "no change", "caspase hit class": "no change", "viability robust z-score": -0.62, "caspase robust z-score": 3.24}
{"target": "ARHGEF16 (Rho guanine nucleotide exchange factor 16)", "PubChem SID": "SID152149694", "viability hit class": "no change", "caspase hit class": "no change", "viability robust z-score": 1.21, "caspase robust z-score": -0.57}
{"target": "HCRT (hypocretin neuropeptide precursor)", "PubChem SID": "SID134315641", "viability hit class": "no change", "caspase hit class": "no change", "viability robust z-score": 1.02, "caspase robust z-score": 0.68}
{"target": "ANP32A (acidic nuclear phosphoprotein 32 family member A)", "PubChem SID": "SID134320072", "viability hit class": "no change", "caspase hit class": "no change", "viability robust z-score": -1, "caspase robust z-score": 2.58}

Continued (3 carried over from the part before).
{"target": "ARHGEF16 (Rho guanine nucleotide exchange factor 16)", "PubChem SID": "SID152149694", "viability hit class": "no change", "caspase hit class": "no change", "viability robust z-score": 1.21, "caspase robust z-score": -0.57}
{"target": "HCRT (hypocretin neuropeptide precursor)", "PubChem SID": "SID134315641", "viability hit class": "no change", "caspase hit class": "no change", "viability robust z-score": 1.02, "caspase robust z-score": 0.68}
{"target": "ANP32A (acidic nuclear phosphoprotein 32 family member A)", "PubChem SID": "SID134320072", "viability hit class": "no change", "caspase hit class": "no change", "viability robust z-score": -1, "caspase robust z-score": 2.58}
{"target": "GRB14 (growth factor receptor bound protein 14)", "PubChem SID": "SID152152085", "viability hit class": "no change", "caspase hit class": "no change", "viability robust z-score": 0.76, "caspase robust z-score": -1.16}
{"target": "CRYZ (crystallin zeta)", "PubChem SID": "SID134314586", "viability hit class": "no change", "caspase hit class": "no change", "viability robust z-score": 0.24, "caspase robust z-score": 0.28}
{"target": "SH3BGRL (SH3 domain binding glutamate rich protein like)", "PubChem SID": "SID134323363", "viability hit class": "no change", "caspase hit class": "no change", "viability robust z-score": -0.76, "caspase robust z-score": 0.35}
{"target": "SRSF11 (serine and arginine rich splicing factor 11)", "PubChem SID": "SID135622224", "viability hit class": "no change", "caspase hit class": "no change", "viability robust z-score": 1.17, "caspase robust z-score": 0.3}
{"target": "SNX13 (sorting nexin 13)", "PubChem SID": "SID152152100", "viability hit class": "no change", "caspase hit class": "no change", "viability robust z-score": 0.25, "caspase robust z-score": -0.86}
{"target": "MRPL36 (mitochondrial ribosomal protein L36)", "PubChem SID": "SID134317794", "viability hit class": "no change", "caspase hit class": "no change", "viability robust z-score": 0.7, "caspase robust z-score": -0.45}
{"target": "SCN3B (sodium voltage-gated channel beta subunit 3)", "PubChem SID": "SID135623280", "viability hit class": "no change", "caspase hit class": "no change", "viability robust z-score": 0.36, "caspase robust z-score": -0.77}
{"target": "OSTCP1 (oligosaccharyltransferase complex subunit pseudogene 1)", "PubChem SID": "SID152153640", "viability hit class": "no change", "caspase hit class": "no change", "viability robust z-score": 0.64, "caspase robust z-score": -0.14}
{"target": "LYPD2 (LY6/PLAUR domain containing 2)", "PubChem SID": "SID152150877", "viability hit class": "no change", "caspase hit class": "no change", "viability robust z-score": -1.13, "caspase robust z-score": 0.71}
{"target": "ODAD2 (outer dynein arm docking complex subunit 2)", "PubChem SID": "SID135622510", "viability hit class": "no change", "caspase hit class": "no change", "viability robust z-score": -0.15, "caspase robust z-score": 2.7}
